Source: PubChem BioAssay AID652054 (National Center for Advancing Translational Sciences (NCATS), 2013)
In all, about 360,000 compounds went through this assay and about 9,100 (2.5%) were called active. Inconclusive means that the source gave no clear call. Such entries were picked first, then a sample of the others. Rule as the data show it: active = max response below about -50%; inconclusive = no clear call, values can overlap the other calls; inactive = above that.

Sequences of proteins named here, by UniProt entry; tags and fusion partners are left off.
UniProt P35462, whole entry, looked up: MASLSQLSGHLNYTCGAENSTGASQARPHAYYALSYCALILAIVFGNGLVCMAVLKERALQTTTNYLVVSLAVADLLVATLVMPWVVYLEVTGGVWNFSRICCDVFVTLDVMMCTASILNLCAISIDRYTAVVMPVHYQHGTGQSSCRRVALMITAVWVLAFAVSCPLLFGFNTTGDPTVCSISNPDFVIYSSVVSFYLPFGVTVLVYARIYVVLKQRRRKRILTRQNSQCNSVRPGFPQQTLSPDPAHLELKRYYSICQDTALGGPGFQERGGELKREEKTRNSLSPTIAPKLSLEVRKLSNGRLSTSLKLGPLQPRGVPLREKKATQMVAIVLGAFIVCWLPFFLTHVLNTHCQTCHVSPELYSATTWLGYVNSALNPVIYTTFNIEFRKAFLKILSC

target: D(3) dopamine receptor (Homo sapiens) (UniProt P35462); assay: qHTS of D3 Dopamine Receptor Antagonist: qHTS; details: D3R cells, DiscoveRx beta-arrestin luminescence, antagonist mode; hits give low values
Outline: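 Cells expressing the human receptor were seeded at 1500 cells/well, incubated overnight at 37 degrees C in 5% CO2, then exposed to library compounds with dopamine controls for 90 minutes at 37 degrees C before luminescent detection.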
% is scaled to controls: 0 for no effect and ±100 for the full control effect.

| SMILES | max response, negative = inhibition |
| --- | --- |
| N#Cc1ccc(-c2cccnc2)nc1SCc1ccc(Cl)c(Cl)c1 | inconclusive: -30.5% |
| CC(=O)[C@@H]1[C@@H](C(=O)c2ccccc2)[C@]2(C(=O)Nc3ccccc32)[C@H]2C=Cc3cc(F)ccc3N12 | inconclusive: -39.1% |
| N#Cc1cccc(-c2csc(C(O)c3ccco3)n2)c1 (centres undefined) | inactive: -25.3% |
| CCC1(c2ccc(F)cc2)NC(=O)N(CC(=O)N2CCc3ccccc32)C1=O (centres undefined) | inactive: 9.32% |
| O=C(/C=C/Sc1ncn[nH]1)c1ccc(Cl)cc1 | active: -50.9% |
| CN(NC(=O)Nc1ccc(Cl)cc1)c1ncc(C(F)(F)F)cc1Cl | inconclusive: -34.1% |
| CCOC(=O)c1oc2cc(O)ccc2c(=O)c1-c1ccccc1OC | active: -61.3% |
| Cc1ccc(CSCCNC(=O)c2ccc(Cl)c(S(=O)(=O)N3CCOCC3)c2)cc1 | inactive: 3.76% |
| Nc1ccc(-c2cnc[nH]2)cc1[N+](=O)[O-] | inconclusive: -36.9% |
| Cc1ccccc1NC(=O)CSc1nc(Nc2ccccc2)nc(N2CCOCC2)n1 | inactive: 4.88% |
| O=C1OCC(O)=C1Cc1ccccc1 | inactive: 16.2% |
| CN(C)C(CNc1ccc(S(C)(=O)=O)cc1[N+](=O)[O-])c1ccccc1 (centres undefined) | active: -64.5% |
| Clc1cccc(OCCCCN2CCCCC2)c1 | inconclusive: -36.5% |
| COC(=O)c1ccccc1NC(=O)c1nc(S(=O)(=O)Cc2ccccc2)ncc1Cl | active: -77.4% |
| CC(Cc1cccs1)NC(=O)Nc1ccc(F)cc1 (centres undefined) | inconclusive: -37.2% |
| CCc1ccn2cc(-c3ccc4c(c3)OCO4)nc2c1 | inactive: -0.0013% |
| CSc1nc(-c2ccccc2)[nH]c(=S)c1C(C)=O | active: -93.4% |
| CCOC(=O)C1CCN(C(=O)C2CCN(C(=O)c3ccc([N+](=O)[O-])cc3)CC2)CC1 | inconclusive: -41.1% |
| Cc1cc(=O)[nH]c(N=N/C(=N/Nc2ccc(O)cc2)c2ccccc2)n1 | active: -101% |
| CCOc1cc(CN2CCN(C(=O)c3ccco3)CC2)ccc1OC | inconclusive: -38.7% |
| Nc1nc2ccccc2n1C(=O)c1ccc(F)cc1 | inconclusive: -36.6% |
| O=C(NC1CCN(Cc2ccccc2)CC1)c1ccc2c(c1)[nH]c(=O)n2Cc1ccc(F)cc1 | inconclusive: -48.4% |
| Clc1ccccc1-c1nnc2sc(-c3ccco3)nn12 | inactive: 26.4% |

| SMILES | max response, negative = inhibition |
| --- | --- |
| O=C(c1cc(-c2ccccc2)on1)N1CCCCCC1 | inconclusive: -41.4% |
| CCc1ccccc1NC(=S)N(CCN(C)C)C(C)c1ccco1 (centres undefined) | active: -146% |
| CCOCC(=O)Nc1cc(C(=O)OC)ccc1C(=O)OC | inconclusive: -34.5% |
| CCOc1ccc(NC(=S)N2CCCN(Cc3cccc(Cl)c3)C2)cc1 | active: -73.6% |
| COc1ccc(OC)c(NC(=O)c2ccc(-c3csc(C)n3)cc2)c1 | inactive: -2.66% |
| Cc1ccc(OCCCCN2CCCCC2)c(Br)c1 | active: -102% |
| C#Cc1ccc(NC(=O)C2(C)CCN2C(=O)c2ccccc2CCc2ccccc2)cc1 (centres undefined) | inactive: -5.12% |
| CC(C)c1ccc(/C=C2\SC(=S)N(CCC(=O)N3CCCCC3CCO)C2=O)cc1 (centres undefined) | inconclusive: -41.8% |
| COc1ccc(CCC(C)N2CCc3ccccc3C2)cc1 (centres undefined) | active: -112% |
| CC(C)N(CCO)C(=O)CCc1nnc(CCCc2ccccc2)o1 | inactive: -11.1% |
| CCO[C@@H]1OC(C(=O)NC2CC2)=C[C@H](c2c[nH]c3ccccc23)[C@H]1CCCO | active: -64.6% |
| O=C(COC(=O)c1ccc2c(c1)OCO2)NCc1ccc(Cl)cc1 | inconclusive: -40.7% |
| COc1ccc(C2=C(C#N)C(=O)OC2)cc1 | active: -55.9% |
| C=CCNC(=O)/C(C#N)=C/c1ccccc1OCc1ccc(C(=O)OC)cc1 | inactive: -0.394% |
| c1ccc2c(c1)CN1C(=N2)COc2ccccc2C1c1nc2ccccc2[nH]1 (centres undefined) | inconclusive: -36.3% |
| Cc1ccc(NC(=O)C2(C)CCN2C(=O)Cc2ccccc2)cc1C (centres undefined) | inactive: -10.9% |
| CC1(C(=O)NS(=O)(=O)c2ccccc2Cl)CCN1C(=O)C1(c2ccc(Cl)cc2)CCC1 (centres undefined) | inconclusive: -31.3% |
| N#C/C(=C\c1cccs1)C(=O)Nc1nccs1 | inactive: -8.06% |
| O=C(NCCN1CCOCC1)c1ccc2c(c1)N(Cc1ccc(F)cc1)C(=O)c1ccccc1S2(=O)=O | inconclusive: -33.1% |
| O=[N+]([O-])c1ccc(O)c2ncccc12 | active: -67.5% |
| Cc1ccc(C(=O)N2CCc3ccccc32)o1 | inactive: 14.5% |
| COc1cc(NC(=O)CCNS(=O)(=O)c2ccc3c(c2)CCC(=O)N3)cc(OC)c1 | inconclusive: -32.7% |
| CN1CCN(c2ccc3c(c2)C2CC3CCN2C(=O)OCc2ccccc2)CC1 (centres undefined) | inconclusive: -32.6% |

Exported bar-delimited: part of the list above.
SMILES | max response, negative = inhibition
N#Cc1cccc(-c2csc(C(O)c3ccco3)n2)c1 (centres undefined) | inactive: -25.3%
CCOC(=O)C1CCN(C(=O)C2CCN(C(=O)c3ccc([N+](=O)[O-])cc3)CC2)CC1 | inconclusive: -41.1%
CCOc1cc(CN2CCN(C(=O)c3ccco3)CC2)ccc1OC | inconclusive: -38.7%
COc1ccc(OC)c(NC(=O)c2ccc(-c3csc(C)n3)cc2)c1 | inactive: -2.66%
Cc1ccc(OCCCCN2CCCCC2)c(Br)c1 | active: -102%
CC(C)N(CCO)C(=O)CCc1nnc(CCCc2ccccc2)o1 | inactive: -11.1%

(listing goes on)

| SMILES | max response, negative = inhibition |
| --- | --- |
| O=C(CN1C2=NCCN2c2ccccc21)c1ccc(Br)s1 | inconclusive: -43.4% |
| Cc1cc(-c2nn(-c3ccccc3F)cc2CN2CCN(c3ccccn3)CC2)c(C)s1 | active: -78.7% |
| CC(C)CCNC(=O)c1cn(CC(C)C)c(=O)c2c1c1ccccc1n2C | inactive: -16.5% |
| COc1cc(OC)c2cc(C(=O)N[C@H](C(=O)N3CCC[C@H]3C(=O)O)C(C)C)n(C)c2c1 | inactive: 11.5% |
| O=C(C1CCN(CC2CC=CCC2)CC1)N(CCc1ccccc1)Cc1ccccc1 (centres undefined) | active: -61% |
| COC(=O)Nc1nc2ccc(-c3n[nH]c(=O)c4ccccc34)cc2[nH]1 | inactive: 1.18% |
| COC(=O)C1(C)NC(c2ccc(O)cc2)C2C(=O)N(c3ccc(C)cc3)C(=O)C21 (centres undefined) | inactive: 7.51% |
| CCn1c(SCc2ccc(Cl)c(Cl)c2)nnc1C(C)NC(=O)c1ccc(OC)cc1 (centres undefined) | inconclusive: -33.4% |
| C=CCC(NC(C)c1ccccc1)c1ccco1 (centres undefined) | inconclusive: -30.5% |
| CCC(=O)N1CCN(c2ccccc2NC(=O)Cc2ccc(Cl)cc2)CC1 | active: -73.7% |
| O=C(/C=C/c1ccc(Cl)cc1)NC(=S)Nc1ccccc1C(=O)O | inactive: -16.3% |
| CN1CCc2nc(SCC(=O)Nc3ccc(OC(F)(F)F)cc3)c(C#N)c(-c3cccs3)c2C1 | inconclusive: -44.6% |
| Cc1cc(C)nc(S/C=C/C(=O)c2ccccc2)n1 | active: -62.5% |
| COc1cccc(C(c2sc3nc(C)nn3c2O)N2CCN(C(=O)c3ccco3)CC2)c1 (centres undefined) | inconclusive: -31.9% |
| CCOC(=O)c1c(/N=C/c2ccc(OC)cc2O)sc2c1CCN(C)C2 | inactive: -19.9% |
| CC1CN(Cc2c(O)ccc3c(=O)c(-c4ccccc4)coc23)CC(C)O1 (centres undefined) | inactive: 5.1% |
| Cc1ccc(S(=O)(=O)N2CCN(C(=O)COC(=O)c3ncc(Cl)c(Cl)c3Cl)CC2)c(C)c1 | inconclusive: -35.4% |
| COCCNC(=O)CN1C(=O)COc2ccc(Cl)cc21 | inconclusive: -32.7% |
| O=C(c1ccco1)N1CCN(c2cc(=O)n(-c3ccc(Cl)cc3)c(=O)[nH]2)CC1 | inconclusive: -30.2% |
| COc1ccc2oc(C(=O)N3CCN(S(=O)(=O)c4cccc([N+](=O)[O-])c4)CC3)c(C)c2c1 | inactive: 27.9% |
| O=C(Cn1ncc2c3ccccc3n(Cc3ccccc3F)c2c1=O)NCCN1CCOCC1 | inactive: -2.48% |
| COc1ccccc1CNC(=O)C1CCN(S(=O)(=O)c2cccc3cccnc23)CC1 | inconclusive: -32.4% |
| Cc1ccc(-c2cc(-c3ccc(C)o3)nc(N)c2C#N)cc1 | inconclusive: -42.5% |

| SMILES | max response, negative = inhibition |
| --- | --- |
| Cc1csc(NC(=O)CCC(=O)N(CC(=O)NC2CCCC2)Cc2ccccc2)n1 | inactive: 13.3% |
| COc1ccc(Cl)cc1N(CC(=O)NC(C)(C)C)S(=O)(=O)c1ccc(C)c([N+](=O)[O-])c1 | inconclusive: -42.9% |
| Cc1ccc(-c2nnn(CC(=O)NC3CC4CCC3C4)n2)cc1 (centres undefined) | inactive: 20.7% |
| CC(=O)c1ccc(N2CCN(CC(O)COC(c3ccccc3)c3ccccc3)CC2)cc1 (centres undefined) | active: -69.2% |
| Cc1ccc(C(C)C)c(OCC(=O)Nc2ccc3c(c2)nc(CN2CCCC2)n3C)c1 | active: -67% |
| Cc1cc(C)c2c(n1)sc1c(=O)n(Cc3ccccc3Cl)nnc12 | active: -51.2% |
| CCO[C@H]1OC(C(=O)NCc2ccccc2)=C[C@@H](C2CC2)[C@@H]1CCCO | inactive: 0% |
| CC(C)(C)OC(=O)N1CCC[C@H]1C(=O)O | inconclusive: -31.6% |
| COc1ccc(CN2CCCC(CNC(=O)c3ccc(F)cc3)C2)c(C)c1C (centres undefined) | inconclusive: -42.8% |
| CC(C)OP(=O)(OC(C)C)/C(C=O)=N\Nc1ccc([N+](=O)[O-])cc1 | inactive: -10.6% |
| COc1ccc(CCNC(=O)Nc2cccc([N+](=O)[O-])c2)cc1OC | inconclusive: -34.9% |
| OCCN1CCN(c2ncnc3c2ncn3[C@H]2CN(Cc3cccs3)C[C@@H](CO)O2)CC1 | inconclusive: -36.7% |
| c1ccc2c(c1)ncn2Cc1nnc2sc(-c3ccncc3)nn12 | inactive: 5.96% |
| CCCCCn1c(=N)n(CC(O)COc2ccccc2OC)c2ccccc21 (centres undefined) | inconclusive: -30.6% |
| CC1CCCN(C(=O)c2nn(C)c3c2CSc2ccccc2-3)C1 (centres undefined) | inactive: -8.65% |
| Cn1c(Oc2ccc(F)cc2)c(C=O)c2ccccc21 | inconclusive: -30.8% |
| CC#CCN1C=C(C(=O)OCC)C(C)N(Cc2ccc(Br)cc2)S1(=O)=O (centres undefined) | inconclusive: -34.5% |
| Cc1cc(C)n(CCOc2nonc2N)n1 | inactive: 7.03% |
| CCC(C)n1c(SCC(=O)Nc2ccccc2C(F)(F)F)nc2ccsc2c1=O (centres undefined) | inactive: 26.7% |
| COC(=O)c1c(NC(=O)c2ccccc2[N+](=O)[O-])sc2c1CC(C)(C)NC2(C)C | inconclusive: -31.7% |
